# In paper doi:10.1101/2023.03.30.534876:
# No constants are given. Whether binding was seen depends on the method and setting. In cells and extracts the contact can be indirect. Binding can be weak; no strength is given. Tags and fused reporters may be left off the sequences shown.
# Target: T1, PPE51 in pUAB300 (M-PFC fusion to a murine dihydrofolate reductase domain) (M. tuberculosis) (UniProt P9WHY3)
# T1 sequence: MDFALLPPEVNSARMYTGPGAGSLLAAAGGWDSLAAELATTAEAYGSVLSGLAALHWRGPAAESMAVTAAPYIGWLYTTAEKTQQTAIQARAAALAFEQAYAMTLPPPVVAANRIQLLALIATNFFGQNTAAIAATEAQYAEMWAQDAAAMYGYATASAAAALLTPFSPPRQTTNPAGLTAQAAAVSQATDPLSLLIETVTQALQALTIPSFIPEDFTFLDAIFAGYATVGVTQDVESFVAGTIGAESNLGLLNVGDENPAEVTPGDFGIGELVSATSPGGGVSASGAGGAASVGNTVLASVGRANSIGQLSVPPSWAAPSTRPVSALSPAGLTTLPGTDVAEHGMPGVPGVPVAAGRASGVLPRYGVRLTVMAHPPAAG
# Assay: split reporter
substance,measurement,value
PPE50 in pUAB400 (M-PFC fusion to a murine dihydrofolate reductase domain) (M. tuberculosis),binding,binds
